Our source for the binding values is article PMC8745027.

Sequences of proteins named here, by UniProt entry; tags and fusion partners are left off. A change or cut given only in a name is not applied to a line headed by its entry.
UniProt Q5T5P2: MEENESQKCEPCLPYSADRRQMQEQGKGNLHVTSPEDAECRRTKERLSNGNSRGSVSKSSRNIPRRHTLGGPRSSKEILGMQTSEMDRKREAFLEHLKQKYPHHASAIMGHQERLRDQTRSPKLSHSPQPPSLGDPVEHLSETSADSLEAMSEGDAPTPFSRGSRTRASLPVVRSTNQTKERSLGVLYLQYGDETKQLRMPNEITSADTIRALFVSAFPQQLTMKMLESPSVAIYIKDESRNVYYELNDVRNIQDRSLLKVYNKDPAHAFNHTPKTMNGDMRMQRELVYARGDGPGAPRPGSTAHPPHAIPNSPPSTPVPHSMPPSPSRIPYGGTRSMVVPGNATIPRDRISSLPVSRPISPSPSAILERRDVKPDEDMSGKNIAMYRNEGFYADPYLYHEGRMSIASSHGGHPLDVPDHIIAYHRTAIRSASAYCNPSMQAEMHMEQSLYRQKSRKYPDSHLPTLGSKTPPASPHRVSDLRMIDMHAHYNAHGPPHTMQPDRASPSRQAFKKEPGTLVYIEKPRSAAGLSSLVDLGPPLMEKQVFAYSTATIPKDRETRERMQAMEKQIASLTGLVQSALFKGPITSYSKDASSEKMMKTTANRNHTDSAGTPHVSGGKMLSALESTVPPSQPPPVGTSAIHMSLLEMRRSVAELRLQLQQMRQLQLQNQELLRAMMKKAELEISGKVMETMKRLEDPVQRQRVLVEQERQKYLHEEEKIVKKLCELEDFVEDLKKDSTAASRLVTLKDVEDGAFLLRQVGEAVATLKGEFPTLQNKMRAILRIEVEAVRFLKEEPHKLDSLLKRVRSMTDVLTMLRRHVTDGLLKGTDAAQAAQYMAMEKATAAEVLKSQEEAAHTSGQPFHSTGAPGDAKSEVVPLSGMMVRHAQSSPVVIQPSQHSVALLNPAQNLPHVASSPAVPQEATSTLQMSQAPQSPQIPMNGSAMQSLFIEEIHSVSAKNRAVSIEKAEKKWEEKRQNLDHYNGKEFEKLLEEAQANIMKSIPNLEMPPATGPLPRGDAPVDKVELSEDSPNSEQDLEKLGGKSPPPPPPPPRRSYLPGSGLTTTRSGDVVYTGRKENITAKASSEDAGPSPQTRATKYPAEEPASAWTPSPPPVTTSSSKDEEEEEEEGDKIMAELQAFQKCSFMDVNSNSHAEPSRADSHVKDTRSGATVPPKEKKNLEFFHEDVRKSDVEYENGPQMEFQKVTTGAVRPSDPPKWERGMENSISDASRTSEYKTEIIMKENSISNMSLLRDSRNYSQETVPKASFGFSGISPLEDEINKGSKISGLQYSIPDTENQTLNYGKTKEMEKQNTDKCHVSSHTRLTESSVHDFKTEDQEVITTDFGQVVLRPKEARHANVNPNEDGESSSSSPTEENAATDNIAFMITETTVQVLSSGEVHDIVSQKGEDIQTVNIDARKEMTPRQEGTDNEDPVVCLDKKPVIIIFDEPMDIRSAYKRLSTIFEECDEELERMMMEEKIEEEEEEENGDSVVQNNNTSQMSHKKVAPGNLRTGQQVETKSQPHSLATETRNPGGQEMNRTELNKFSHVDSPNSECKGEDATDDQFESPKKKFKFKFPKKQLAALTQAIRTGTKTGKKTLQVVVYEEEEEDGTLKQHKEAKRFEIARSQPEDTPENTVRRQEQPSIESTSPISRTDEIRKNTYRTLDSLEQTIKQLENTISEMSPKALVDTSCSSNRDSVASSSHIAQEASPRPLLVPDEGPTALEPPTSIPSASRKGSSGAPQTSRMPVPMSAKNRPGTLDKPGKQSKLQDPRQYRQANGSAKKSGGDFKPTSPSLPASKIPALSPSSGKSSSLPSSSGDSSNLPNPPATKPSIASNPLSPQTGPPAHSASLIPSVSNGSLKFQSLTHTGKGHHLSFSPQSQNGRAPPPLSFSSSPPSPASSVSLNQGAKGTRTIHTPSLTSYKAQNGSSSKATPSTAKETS
UniProt P40763: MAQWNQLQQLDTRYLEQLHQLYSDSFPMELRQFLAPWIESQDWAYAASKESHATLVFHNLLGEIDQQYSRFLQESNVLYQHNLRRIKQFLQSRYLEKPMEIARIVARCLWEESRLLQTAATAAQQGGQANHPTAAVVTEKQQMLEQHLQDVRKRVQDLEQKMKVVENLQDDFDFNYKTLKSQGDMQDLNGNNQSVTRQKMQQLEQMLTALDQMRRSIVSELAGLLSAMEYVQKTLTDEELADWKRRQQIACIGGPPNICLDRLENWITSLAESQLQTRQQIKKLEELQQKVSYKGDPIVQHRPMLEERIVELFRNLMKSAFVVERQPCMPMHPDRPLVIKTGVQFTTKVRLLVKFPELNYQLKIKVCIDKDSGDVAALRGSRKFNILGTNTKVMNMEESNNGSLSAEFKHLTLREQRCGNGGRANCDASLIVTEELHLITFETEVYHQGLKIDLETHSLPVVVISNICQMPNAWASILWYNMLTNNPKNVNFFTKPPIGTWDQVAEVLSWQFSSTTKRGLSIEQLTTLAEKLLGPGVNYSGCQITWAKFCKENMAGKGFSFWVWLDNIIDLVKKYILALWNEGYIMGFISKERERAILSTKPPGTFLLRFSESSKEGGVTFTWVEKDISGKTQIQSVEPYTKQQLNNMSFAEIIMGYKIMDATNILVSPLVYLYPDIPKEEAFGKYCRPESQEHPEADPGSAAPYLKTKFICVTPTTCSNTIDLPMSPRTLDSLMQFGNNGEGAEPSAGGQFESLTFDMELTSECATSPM
UniProt P23458: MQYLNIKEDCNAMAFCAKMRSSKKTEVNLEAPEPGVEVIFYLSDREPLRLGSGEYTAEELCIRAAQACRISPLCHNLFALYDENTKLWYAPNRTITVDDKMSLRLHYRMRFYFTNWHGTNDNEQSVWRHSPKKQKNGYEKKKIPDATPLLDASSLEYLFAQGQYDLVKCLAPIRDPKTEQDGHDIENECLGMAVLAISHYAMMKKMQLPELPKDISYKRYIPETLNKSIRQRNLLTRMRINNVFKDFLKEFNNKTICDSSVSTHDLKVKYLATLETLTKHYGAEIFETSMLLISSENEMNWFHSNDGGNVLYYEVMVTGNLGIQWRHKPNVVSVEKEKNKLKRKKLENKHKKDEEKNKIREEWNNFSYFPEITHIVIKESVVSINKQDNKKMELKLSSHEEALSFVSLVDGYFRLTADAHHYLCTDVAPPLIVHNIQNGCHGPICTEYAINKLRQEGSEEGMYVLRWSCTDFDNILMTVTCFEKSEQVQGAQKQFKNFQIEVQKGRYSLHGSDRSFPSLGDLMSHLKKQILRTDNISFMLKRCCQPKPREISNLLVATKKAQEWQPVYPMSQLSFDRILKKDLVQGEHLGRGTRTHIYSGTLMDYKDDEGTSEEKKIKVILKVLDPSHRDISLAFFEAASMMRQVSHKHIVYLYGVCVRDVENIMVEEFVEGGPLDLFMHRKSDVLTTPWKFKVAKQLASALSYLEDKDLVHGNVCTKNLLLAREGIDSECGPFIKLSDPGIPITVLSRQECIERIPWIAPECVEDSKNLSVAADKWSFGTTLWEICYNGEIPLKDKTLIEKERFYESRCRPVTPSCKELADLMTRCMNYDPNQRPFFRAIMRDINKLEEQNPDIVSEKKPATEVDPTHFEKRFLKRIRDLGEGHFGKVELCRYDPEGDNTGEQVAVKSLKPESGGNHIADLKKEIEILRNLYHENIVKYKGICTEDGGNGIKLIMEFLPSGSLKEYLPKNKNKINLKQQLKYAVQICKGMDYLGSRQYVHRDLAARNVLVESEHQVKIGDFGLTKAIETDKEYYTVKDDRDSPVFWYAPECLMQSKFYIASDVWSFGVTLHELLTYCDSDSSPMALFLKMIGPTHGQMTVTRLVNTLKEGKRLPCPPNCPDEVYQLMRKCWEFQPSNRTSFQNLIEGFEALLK
UniProt O60674: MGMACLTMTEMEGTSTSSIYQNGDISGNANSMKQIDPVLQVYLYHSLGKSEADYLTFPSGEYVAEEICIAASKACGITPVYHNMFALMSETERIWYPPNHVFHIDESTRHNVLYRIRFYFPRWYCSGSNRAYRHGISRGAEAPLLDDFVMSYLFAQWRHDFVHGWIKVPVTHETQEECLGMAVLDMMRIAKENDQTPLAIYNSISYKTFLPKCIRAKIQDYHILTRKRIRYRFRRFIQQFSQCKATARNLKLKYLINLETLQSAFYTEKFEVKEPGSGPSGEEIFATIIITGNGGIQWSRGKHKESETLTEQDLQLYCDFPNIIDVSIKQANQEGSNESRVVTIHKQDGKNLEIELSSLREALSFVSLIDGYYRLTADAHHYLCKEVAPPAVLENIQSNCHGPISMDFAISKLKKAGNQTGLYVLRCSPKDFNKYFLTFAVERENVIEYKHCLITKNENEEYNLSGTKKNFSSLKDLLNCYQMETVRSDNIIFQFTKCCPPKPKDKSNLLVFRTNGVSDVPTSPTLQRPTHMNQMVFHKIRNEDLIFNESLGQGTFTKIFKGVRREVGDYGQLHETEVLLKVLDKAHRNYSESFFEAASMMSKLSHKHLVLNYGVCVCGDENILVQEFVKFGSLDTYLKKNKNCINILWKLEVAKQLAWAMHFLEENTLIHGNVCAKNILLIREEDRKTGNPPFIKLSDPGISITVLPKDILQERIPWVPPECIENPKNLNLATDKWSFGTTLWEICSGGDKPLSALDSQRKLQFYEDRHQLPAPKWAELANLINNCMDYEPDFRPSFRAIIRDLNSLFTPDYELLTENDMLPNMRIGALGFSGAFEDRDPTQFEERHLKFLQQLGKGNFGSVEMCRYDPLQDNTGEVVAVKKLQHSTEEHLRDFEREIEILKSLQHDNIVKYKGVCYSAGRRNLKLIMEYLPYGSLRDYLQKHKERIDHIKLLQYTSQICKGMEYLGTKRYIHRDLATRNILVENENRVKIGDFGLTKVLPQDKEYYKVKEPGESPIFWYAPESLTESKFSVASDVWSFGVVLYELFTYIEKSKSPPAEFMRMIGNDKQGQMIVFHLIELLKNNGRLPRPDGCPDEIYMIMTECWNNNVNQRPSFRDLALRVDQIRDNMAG

In test [1] the target is KIAA1217 (overexpressed, pcDNA3.1-DYK-KIAA1217) (human) (UniProt Q5T5P2). Kind of test: co-IP; reciprocal co-IP from HEK-293T cells ectopically expressing KIAA1217 and STAT3; Protein A/G magnetic beads with antibody at 5 ug/mL, lysate in IP lysis solution, 4 °C overnight; Western blot; isotype-matched IgG as negative control.
The target of test [2] is endogenous KIAA1217 (human (endogenous in HepG2)) (UniProt Q5T5P2). Kind of test: co-IP; co-IP of endogenous proteins from HepG2 cells; Protein A/G magnetic beads with antibody at 5 ug/mL, lysate in IP lysis solution, 4 °C overnight; Western blot; isotype-matched IgG as negative control. Background: A western blot detects proteins with antibodies after separation by electrophoresis.

Test [3] addresses STAT3 (overexpressed, pCMV-DYK-STAT3) (UniProt P40763). Nature of the test: co-IP; reciprocal co-IP from HEK-293T cells ectopically expressing KIAA1217 and STAT3; Protein A/G magnetic beads with antibody at 5 ug/mL, lysate in IP lysis solution, 4 °C overnight; Western blot; isotype-matched IgG as negative control.
Test [4] addresses endogenous JAK1 (human (endogenous in HepG2)) (UniProt P23458). Kind of test: co-IP; co-IP of endogenous proteins from HepG2 cells; Protein A/G magnetic beads with antibody at 5 ug/mL, lysate in IP lysis solution, 4 °C overnight; Western blot; isotype-matched IgG as negative control.
Test [5] has as its target endogenous JAK2 (human (endogenous in HepG2)) (UniProt O60674). The description is as above.
The target of test [6] is endogenous STAT3 (human (endogenous in HepG2)) (UniProt P40763). Described as above.

These are yes or no findings as the source states them, for the method shown. Binding seen in cells or lysates may run through a third protein. Some results given as binding are weak or reduced against the parent protein; the word gives no strength.

Regarding “STAT3 (overexpressed, pCMV-DYK-STAT3) (from UniProt P40763 1-770)”, the binding entry in test [1] is reported as “binds”.

“endogenous STAT3 (from UniProt P40763 1-770)”: the binding result in test [2] was “binds”.

On to “KIAA1217 (overexpressed, pcDNA3.1-DYK-KIAA1217) (from UniProt Q5T5P2-1 1-1943)”, for which, in test [3], the binding result is given as “binds”.

With “endogenous phosphorylated STAT3 (p-STAT3) (from UniProt P40763 1-770)”, the binding entry in test [2] is “binds”.

For “endogenous KIAA1217 (from UniProt Q5T5P2 1-1943)”, the binding entry in test [4], in test [5] and in test [6] was “binds” throughout.
